# Measurements from the supplement of paper PMC4604168 (melanoma cell lines).
# The list shows a part of the results. Repeats are few or missing, and single values can be far off.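 Cells were imaged in 1,536-well plates, and nuclei stained with an antibody against cleaved PARP were counted against all DNA-stained nuclei to give the apoptosis fraction. Screening doses were chosen to leave most cells alive, and resting and induced cleaved-PARP levels differ strongly between cell lines.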
# Test system: MeWo
# Assay: cleaved PARP positive nuclei fraction relative to DMSO control; melanoma cells; higher = more apoptosis
# Conditions: library dose: low library concentration; 72 h
row,SMILES,cleaved PARP positive nuclei fraction
1,"C[C@@H]1CCN(C(=O)CC#N)C[C@@H]1N(C)c1ncnc2[nH]ccc12 + c1cc(-c2cnn3cc(-c4ccc(OCCN5CCCCC5)cc4)cnc23)ccn1 [Dorsomorphin] (first compound 1 µM, partner dose 0.4 µM)",17.7%
2,"NC(=O)Nc1cc(-c2cccc(F)c2)sc1C(=O)N[C@H]1CCCNC1 + O=S(=O)(c1ccccc1)N(CC(F)(F)F)c1ccc(C(O)(C(F)(F)F)C(F)(F)F)cc1 [T0901317] (first compound 0.02 µM, partner dose 1.4 µM)",51.7%
3,"O=C(Nc1cccc(Cl)c1)Nc1ncc(CCNc2ncnc3ccsc23)s1 + COc1cc(N2CCC(N3CCN(C)CC3)CC2)ccc1Nc1ncc(Cl)c(Nc2ccccc2S(=O)(=O)C(C)C)n1 [NVP-TAE684] (first compound 0.0008 µM, partner dose 0.08 µM)",125%
4,"C[C@]1(c2nc3c(C(N)=O)cccc3[nH]2)CCCN1 [Veliparib] + O=S(=O)(c1ccccc1)N(CC(F)(F)F)c1ccc(C(O)(C(F)(F)F)C(F)(F)F)cc1 [T0901317] (first compound 1.4 µM, partner dose 1.4 µM)",115%
5,"Cc1nc(Nc2ncc(C(=O)Nc3c(C)cccc3Cl)s2)cc(N2CCN(CCO)CC2)n1 [dasatanib] + CCc1ccc(CCOc2ccc(CC3SC(=O)NC3=O)cc2)nc1 [pioglitazone] (first compound 0.004 µM, partner dose 2 µM)",37.9%
6,"CC1(C)NC(=O)N(c2ccc([N+](=O)[O-])c(C(F)(F)F)c2)C1=O [nilutamide] + O=c1cc(-c2cccc3c2Sc2ccccc2S3)oc(N2CCOCC2)c1 [KU55933] (first compound 1 µM, partner dose 1 µM)",68.4%
7,"COc1cc(Nc2ncc(F)c(Nc3ccc4c(n3)NC(=O)C(C)(C)O4)n2)cc(OC)c1OC [Tamatinib] + Oc1nc(-c2ccc(C(F)(F)F)cc2)nc2c1CSCC2 [XAV939] (first compound 0.4 µM, partner dose 2 µM)",52.8%
8,"O=C(CCCCCCC(=O)Nc1ccccc1)NO [vorinostat] + O=C(O)C(=O)Nc1sc2c(c1C(=O)O)CCNC2 [TCS401] (first compound 0.08 µM, partner dose 1.66667 µM)",102%

# Two entries from above, with bars between the fields:
row | SMILES | cleaved PARP positive nuclei fraction
1 | C[C@@H]1CCN(C(=O)CC#N)C[C@@H]1N(C)c1ncnc2[nH]ccc12 + c1cc(-c2cnn3cc(-c4ccc(OCCN5CCCCC5)cc4)cnc23)ccn1 [Dorsomorphin] (first compound 1 µM, partner dose 0.4 µM) | 17.7%
2 | NC(=O)Nc1cc(-c2cccc(F)c2)sc1C(=O)N[C@H]1CCCNC1 + O=S(=O)(c1ccccc1)N(CC(F)(F)F)c1ccc(C(O)(C(F)(F)F)C(F)(F)F)cc1 [T0901317] (first compound 0.02 µM, partner dose 1.4 µM) | 51.7%
